# According to PubChem BioAssay AID504467 (National Center for Advancing Translational Sciences (NCATS), 2011):
# The whole screen tested about 330,000 compounds, of which about 7,700 (2.3%) were called active. The inconclusive results got no clear call from the source; some entries with a clear call stand among them for comparison. The call rests on the fitted dose curve; in most records, active means well fitted inhibition curve with a large enough effect; inconclusive means small, poorly fitted or top-dose-only effect, or effect the other way; inactive means flat fitted curve, though single readings scatter. Where the call is inconclusive, the potency comes from a doubtful curve fit.
# Experiment: qHTS screen for small molecules that inhibit ELG1-dependent DNA repair in human embryonic kidney (HEK293T) cells expressing luciferase-tagged ELG1; further: nearly all actives have a fitted effect of over 55% in size
# Conditions: HEK293T ELG1-luciferase reporter, luminescence, 16 h, DNA damage induced by 5-fluorouridine; activity change, negative = inhibition: at 46.1 µM (top of the series)
# Procedure, shortened: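 Overnight (16 hr) co-exposure of 2,000 cells/well to 5-fluorouridine and compound at 37 °C preceded detection. Luciferase was quantified via ONE-Glo luminescence; loss of signal denotes inhibition.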
# On the % scale 0 is the no-effect control and ±100 the full control effect; potency means the concentration at half of the fitted maximal effect.
Compound,"activity change, negative = inhibition",Potency
CCOC(=O)c1nnn2c1nc(Nc1cccc(C(F)(F)F)c1)c1ccccc12,inactive: -0.904%,
CCSc1nnc(NC(=O)C2CCN(S(=O)(=O)c3ccccc3C(F)(F)F)CC2)s1,,active: 23.1 µM
CCOC(=O)CNC(=O)CSc1nc2cccnc2n1Cc1ccccc1,,"inconclusive: 7.31 µM [activator, partial curve, poor fit]"
Cc1cnc(NC(=O)c2ccncc2)s1,,"inconclusive: 20.6 µM [activator, single point]"
CN(C)CCn1c(=N)n(CC(O)c2ccc(Cl)c(Cl)c2)c2ccccc21 (stereo unspecified),,"inconclusive: 23.1 µM [inhibitor, single point]"
CC(C)Cc1cc(C(=O)Nc2cc(Br)ccc2O)no1,,"inconclusive: 10.3 µM [activator, partial curve]"
C[C@H](NC(=O)c1ccco1)C(=O)NC1CCCCCC1,,"inconclusive: 18.3 µM [activator, partial curve, poor fit]"
Cc1cccc(C(=O)OCCN2CCOCC2)c1,,"inconclusive: 29.1 µM [activator, single point]"
COc1ccc(-c2noc(CNC(=O)c3ccoc3C)n2)cc1,inactive: -0.185%,
CNCc1ccccc1OCc1ccc(F)cc1,inactive: 12.8%,
O=C(c1ccc2ncsc2c1)N1CCN(c2ccc(O)cc2)CC1,,"inconclusive: 14.6 µM [inhibitor, partial curve, poor fit]"
C=CCNc1nc(C(=O)OCC(=O)Nc2ccccc2C(F)(F)F)cs1,,"inconclusive: 11.6 µM [activator, partial curve, poor fit]"
Cn1c(SCC(=O)N2CCCCCC2)nnc1-c1ccco1,,"inconclusive: 9.2 µM [activator, single point]"
CCN1C(=O)C(CC(=O)Nc2c(C)cccc2C)Nc2cc(S(=O)(=O)N(C)C)ccc21 (stereo unspecified),inactive: -3.13%,
Cc1ccccc1NC(=O)CN1C(=S)NC(C)(C)CC1C (stereo unspecified),inactive: -1.89%,
CCOC(=O)c1cc(NC(=O)c2cccnc2)cc(C(=O)OCC)c1,,"inconclusive: 25.9 µM [inhibitor, single point]"
CS(=O)(=O)c1nc(-c2cccs2)cc(C(F)(F)F)n1,,"inconclusive: 25.9 µM [inhibitor, single point]"
COc1cc2[nH]c(=S)n(C3CC3)c(=O)c2cc1OC,inactive: 9.15%,
CC(C)(C)c1ccc(S(=O)(=O)Nc2noc3ccccc23)cc1,inactive: -10.2%,
Cc1cc(C(=O)NNC(=S)NC(=O)/C=C/c2ccccc2Cl)n[nH]1,inactive: 20.1%,
COc1ccc(NC(=O)CCn2nnc(-c3ccc(C)cc3)n2)cc1OC,,"inconclusive: 25.9 µM [inhibitor, partial curve, poor fit]"

# Two entries picked at random from those above:
Compound,"activity change, negative = inhibition",Potency
O=C(c1ccc2ncsc2c1)N1CCN(c2ccc(O)cc2)CC1,,"inconclusive: 14.6 µM [inhibitor, partial curve, poor fit]"
CN(C)CCn1c(=N)n(CC(O)c2ccc(Cl)c(Cl)c2)c2ccccc21 (stereo unspecified),,"inconclusive: 23.1 µM [inhibitor, single point]"
